The record followed here is PubChem BioAssay AID248 (DTP/NCI, 2004).

The list shows only some results of the screen, not a fair sample: it is rich in T/C values a quarter to a half above the control, in often repeated tests (any T/C) and in doses without a T/C. Further doses and runs are listed elsewhere. T/C gives the treated animals as a percentage of the vehicle group. Some doses have a count of surviving animals in place of a T/C: the source files T/C as zero there, which appears to mark a toxic dose or a test without result, not a measured value. Some survivor counts are full or nearly so, which does not show that the dose was tolerated: survival well below the control is almost never listed, so the zero probably covers shortened survival too. Counts of survivors are from the toxicity check (mostly the fifth day) where no day follows; animals may have died later. Schedules are NCI's codes, taken here to give the interval after Q, in days (D) or hours (H), and the number of doses after X. Some schedules carry Z or #; the key to these is not given. Some entries were tested several times; the results are listed from low to high. For survival time, the PubChem record calls one and a half times the control and up active, and a quarter to a half above the control has no call in these data; cut-offs in other NCI protocols can differ. Some T/C values are followed by the survivors on the day toxicity was checked, most often the fifth; where none is given, no animal had died by that day.

The test system of the assay is L1210 leukemia ip in BDF1 mice, survival T/C. In words: NCI In Vivo Anticancer Drug Screen. Data for tumor model L1210 Leukemia (intraperitoneal) in B6D2F1 (BDF1) mice. The following applies: T/C endpoint: mean survival time, higher T/C = longer survival.
The mark [1] stands for this setting: dose: 10.0 mg/kg/injection, schedule: Q01DX001 (ip), vehicle: saline.
Where [2] appears, read: dose: 100.0 mg/kg/injection, schedule: Q04DX003 (ip), vehicle: saline with Tween-80.
The mark [3] stands for this setting: dose: 200.0 mg/kg/injection, schedule: Q04DX003 (ip), vehicle: saline with Tween-80.
Setting [4] is: dose: 400.0 mg/kg/injection, schedule: Q04DX003 (ip), vehicle: saline with Tween-80.
[5] abbreviates: dose: 300.0 mg/kg/injection, schedule: Q01DX001 (ip), vehicle: saline.
Where [6] appears, read: dose: 400.0 mg/kg/injection, schedule: Q01DX001 (ip), vehicle: saline.

As to `CCCCCCCCCCCC(c1ccccc1)[N+](C)(C)C` (centres undefined), the survivor count (dose: 5.0 mg/kg/injection, schedule: Q01DX001 (ip), vehicle: saline) is given as 0 of 4; the survivor count (dose: 8.0 mg/kg/injection, schedule: Q01DX009 (ip), vehicle: saline) is reported as 2 of 6; the survivor count under setting [1] is listed as 1 of 4; the survivor count (dose: 16.0 mg/kg/injection, schedule: Q01DX009 (ip), vehicle: saline) was 3 of 6; the survivor count (dose: 20.0 mg/kg/injection, schedule: Q01DX001 (ip), vehicle: saline) was 1 of 4; the survivor count (dose: 40.0 mg/kg/injection, schedule: Q01DX001 (ip), vehicle: saline) was 0 of 4. The survivor count (dose: 80.0 mg/kg/injection, schedule: Q01DX001 (ip), vehicle: saline) is on record as 0 of 4.

In the case of `CC(C)=CCC(N)CC=C(C)C`, the survivor count reads like this: (dose: 100.0 mg/kg/injection, schedule: Q01DX009 (ip), vehicle: Klucel (hydroxypropylcellulose) (HPC)) 0 of 6; (dose: 100.0 mg/kg/injection, schedule: Q04DX002 (ip), vehicle: Klucel (hydroxypropylcellulose) (HPC)) 1 of 3; (dose: 200.0 mg/kg/injection, schedule: Q01DX009 (ip), vehicle: Klucel (hydroxypropylcellulose) (HPC)) 0 of 6; (dose: 400.0 mg/kg/injection, schedule: Q01DX009 (ip), vehicle: Klucel (hydroxypropylcellulose) (HPC)) 0 of 6.

With `Cc1nc2ccccc2nc1CI`, the survivor count is 5 of 6 (dose: 25.0 mg/kg/injection, schedule: Q04DX003 (ip), vehicle: acetone); 2 of 6 (dose: 28.0 mg/kg/injection, schedule: Q01DX009 (ip), vehicle: saline with Tween-80); 3 of 6 (dose: 40.0 mg/kg/injection, schedule: Q01DX009 (ip), vehicle: saline with Tween-80); 3 of 6 (dose: 50.0 mg/kg/injection, schedule: Q04DX003 (ip), vehicle: acetone); 2 of 6 under setting [2]; 0 of 6 under setting [3]. Moreover, under setting [4], the survivor count is 0 of 6.

For the molecule `COC1=CC2C3=CC(C)C4C(=O)OC(=O)C4C3C1C1C(=O)OC(=O)C21` (centres undefined), the survivor count (dose: 200.0 mg/kg/injection, schedule: Q01DX009 (ip), vehicle: saline with Tween-80) is listed as 0 of 3.

With `COC1=C(N2CC2)C(=O)C(OC)=C(N2CC2)C1=O`, the T/C by setting is: (dose: 2.0 mg/kg/injection, schedule: Q01DX009 (ip), vehicle: carboxymethylcellulose (CMC)) 137 % of control; (dose: 3.0 mg/kg/injection, schedule: Q01DX009 (ip), vehicle: carboxymethylcellulose (CMC)) 129 % of control. Besides, the survivor count reads like this: (dose: 6.0 mg/kg/injection, schedule: Q01DX009 (ip), vehicle: carboxymethylcellulose (CMC)) 6 of 6; (dose: 12.0 mg/kg/injection, schedule: Q01DX009 (ip), vehicle: carboxymethylcellulose (CMC)) 6 of 6.

On to `C=CCN(CC=C)CCN1CCN(CCCN2c3ccccc3Sc3ccc(C(F)(F)F)cc32)CC1`, for which the survivor count was 5 of 6 (dose: 50.0 mg/kg/injection, schedule: Q01DX009 (ip), vehicle: saline); 0 of 6 (dose: 100.0 mg/kg/injection, schedule: Q01DX009 (ip), vehicle: saline); 3 of 6 (dose: 150.0 mg/kg/injection, schedule: Q04DX003 (ip), vehicle: saline); 0 of 6 (dose: 225.0 mg/kg/injection, schedule: Q01DX001 (ip), vehicle: saline); 2 of 6 (dose: 225.0 mg/kg/injection, schedule: Q04DX003 (ip), vehicle: saline); 0 of 6 (dose: 335.0 mg/kg/injection, schedule: Q04DX003 (ip), vehicle: saline).

On to `CCOC(=O)C1CN(C2CCCCC2)CCC1=O` (centres undefined), for which the survivor count under setting [5] is reported as 3 of 6.

Take `CS(=O)(=O)C(Cl)(Cl)S(C)(=O)=O`: the survivor count is, setting by setting: under setting [2], 2 of 6; under setting [3], 0 of 6; under setting [4], 0 of 6.

Take `CCCOCCOCCOC(C)Oc1ccc(OC)cc1` (centres undefined): where the note is “dose: 400.0 mg/kg/injection, schedule: Q04DX002 (ip), vehicle: saline”, the survivor count is 3 of 3.

Consider `CN1C(=O)CCS(=O)(=O)C1c1ccc(Cl)c(Cl)c1` (centres undefined), for which the survivor count (dose: 400.0 mg/kg/injection, schedule: Q04DX003 (ip), vehicle: Klucel (hydroxypropylcellulose) (HPC)) is 2 of 4.

For the molecule `Cn1ncc2c(NCc3ccccc3)ncnc21`, the survivor count under setting [6] is recorded as 0 of 6.

As for `CCCCCCOC(=O)C(N)Cc1ccc(O)c(N(CCCl)CCCl)c1` (centres undefined), the T/C is, setting by setting: (dose: 0.02 mg/kg/injection, schedule: Q01DX009 (ip), vehicle: saline) 134 % of control; (dose: 0.05 mg/kg/injection, schedule: Q01DX009 (ip), vehicle: saline) 134 % of control; (dose: 0.1 mg/kg/injection, schedule: Q01DX009 (ip), vehicle: saline) 130 % of control; (dose: 0.5 mg/kg/injection, schedule: Q01DX001 (ip), vehicle: saline) 132 % of control; under setting [1], 141 % of control [5 of 6 alive]; (dose: 2.0 micrograms/kg/injection, schedule: Q01DX009 (ip), vehicle: saline) 137 % of control. Where the note is “dose: 4.0 micrograms/kg/injection, schedule: Q01DX009 (ip), vehicle: saline”, the T/C was 146 % of control. The survivor count reads like this: (dose: 1.0 mg/kg/injection, schedule: Q01DX001 (ip), vehicle: saline) 6 of 6; (dose: 2.2 mg/kg/injection, schedule: Q01DX009 (ip), vehicle: saline) 2 of 6; (dose: 3.3 mg/kg/injection, schedule: Q01DX009 (ip), vehicle: saline) 0 of 6 and 6 of 6; (dose: 5.0 mg/kg/injection, schedule: Q01DX009 (ip), vehicle: saline) 0 of 6 and 6 of 6; (dose: 7.5 mg/kg/injection, schedule: Q01DX001 (ip), vehicle: saline) 0 of 6; (dose: 7.5 mg/kg/injection, schedule: Q01DX009 (ip), vehicle: saline) 0 of 6 and 5 of 6. The survivor count is 1 of 6 (dose: 15.0 mg/kg/injection, schedule: Q01DX001 (ip), vehicle: saline); 3 of 6 (dose: 30.0 mg/kg/injection, schedule: Q01DX001 (ip), vehicle: saline); 0 of 6 (dose: 60.0 mg/kg/injection, schedule: Q01DX001 (ip), vehicle: saline); 1 of 6 (dose: 75.0 mg/kg/injection, schedule: Q01DX001 (sc), vehicle: saline); 1 of 6 (dose: 150.0 mg/kg/injection, schedule: Q01DX001 (sc), vehicle: saline); 0 of 6 (dose: 300.0 mg/kg/injection, schedule: Q01DX001 (sc), vehicle: saline).

On to `O=C(O)c1ccc(Br)s1`, for which the survivor count under setting [6] was 0 of 4.

With `CC1CC(C)NC(=S)N1` (centres undefined), the survivor count (dose: 400.0 mg/kg/injection, schedule: Q04DX002 (ip), vehicle: saline with Tween-80) was 2 of 3.

Regarding `O=C(O)c1ccc2c(c1)C(=O)c1cc([N+](=O)[O-])ccc1-2`, the survivor count (dose: 400.0 mg/kg/injection, schedule: Q01DX001 (ip), vehicle: carboxymethylcellulose (CMC)) is 1 of 4.

Consider `Cc1ccc(Nc2nc(N)nc(N)c2N)cc1C`, for which the survivor count runs as follows: (dose: 50.0 mg/kg/injection, schedule: Q01DX Z (ip), vehicle: saline) 1 of 6; (dose: 100.0 mg/kg/injection, schedule: Q01DX Z (ip), vehicle: saline) 0 of 6; (dose: 200.0 mg/kg/injection, schedule: Q01DX Z (ip), vehicle: saline) 0 of 6.

In the case of `NCC(=O)Oc1c(Cl)c(Cl)c(Cl)c(Cl)c1Cl`, the survivor count reads like this: (dose: 150.0 mg/kg/injection, schedule: Q01DX001 (ip), vehicle: saline) 0 of 6; under setting [5], 0 of 6.

With `C[N+](C)(CC(=O)Nc1ccc(Oc2ccc(Cl)cc2)cc1)Cc1ccccc1`, for the setting “dose: 50.0 mg/kg/injection, schedule: Q01DX009 (ip), vehicle: Klucel (hydroxypropylcellulose) (HPC)”, the survivor count was 0 of 6.
